Repeats are few or missing, and single values can be far off.
Compound: [O-][N+](C(C1=C(C(O)=C2)NC(C(C=C3)=CC=C3Cl)C4C1C=CC4)=C2Cl)=O
Assay: melting temperature shift (compound 7 minus DMSO); higher = compound stabilises the protein
Details: 10 µM
Experimental: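 Thermal proteome profiling (TMT mass spectrometry) in intact DAOY medulloblastoma cells or DAOY lysates treated with 10 µM compound 7 or DMSO, heated at 10 temperatures from 40.5 to 73.8 °C for 3 min. Melting curves were fitted with the Bioconductor TPP package, and the melting point difference between compound and vehicle is reported per protein (single curve per condition).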

Sequences of proteins named here, by UniProt entry; tags and fusion partners are left off. A change or cut given only in a name is not applied to a line headed by its entry.
UniProt Q10471: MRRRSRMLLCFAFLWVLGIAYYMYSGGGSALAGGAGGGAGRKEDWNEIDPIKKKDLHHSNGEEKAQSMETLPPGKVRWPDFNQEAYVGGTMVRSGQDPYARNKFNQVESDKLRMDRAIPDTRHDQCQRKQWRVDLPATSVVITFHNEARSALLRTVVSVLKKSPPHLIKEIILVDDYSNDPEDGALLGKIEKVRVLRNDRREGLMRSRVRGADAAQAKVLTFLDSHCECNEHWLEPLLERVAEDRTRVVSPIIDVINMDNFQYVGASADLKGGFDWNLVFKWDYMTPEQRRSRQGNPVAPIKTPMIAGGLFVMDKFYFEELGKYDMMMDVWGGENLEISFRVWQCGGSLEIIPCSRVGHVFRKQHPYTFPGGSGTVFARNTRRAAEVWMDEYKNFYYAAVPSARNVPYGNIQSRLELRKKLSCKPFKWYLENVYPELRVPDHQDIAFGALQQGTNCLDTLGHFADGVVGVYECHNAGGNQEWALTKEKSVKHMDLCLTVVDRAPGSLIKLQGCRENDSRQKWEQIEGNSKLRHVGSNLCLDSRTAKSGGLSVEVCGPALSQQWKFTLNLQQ
UniProt O95391: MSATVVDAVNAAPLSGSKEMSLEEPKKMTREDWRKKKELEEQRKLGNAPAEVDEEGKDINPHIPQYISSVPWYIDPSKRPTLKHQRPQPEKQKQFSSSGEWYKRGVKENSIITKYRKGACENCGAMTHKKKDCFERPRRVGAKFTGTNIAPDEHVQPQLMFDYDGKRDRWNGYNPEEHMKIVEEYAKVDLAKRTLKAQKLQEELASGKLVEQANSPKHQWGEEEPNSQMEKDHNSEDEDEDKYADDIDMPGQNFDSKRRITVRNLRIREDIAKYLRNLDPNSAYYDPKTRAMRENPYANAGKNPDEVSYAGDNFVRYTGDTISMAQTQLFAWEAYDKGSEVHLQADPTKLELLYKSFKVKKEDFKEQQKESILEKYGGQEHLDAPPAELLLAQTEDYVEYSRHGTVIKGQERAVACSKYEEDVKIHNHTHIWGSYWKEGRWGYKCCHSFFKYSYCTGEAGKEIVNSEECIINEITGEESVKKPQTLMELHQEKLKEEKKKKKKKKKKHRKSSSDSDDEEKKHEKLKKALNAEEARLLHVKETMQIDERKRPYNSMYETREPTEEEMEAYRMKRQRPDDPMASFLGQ
UniProt P23258, whole entry: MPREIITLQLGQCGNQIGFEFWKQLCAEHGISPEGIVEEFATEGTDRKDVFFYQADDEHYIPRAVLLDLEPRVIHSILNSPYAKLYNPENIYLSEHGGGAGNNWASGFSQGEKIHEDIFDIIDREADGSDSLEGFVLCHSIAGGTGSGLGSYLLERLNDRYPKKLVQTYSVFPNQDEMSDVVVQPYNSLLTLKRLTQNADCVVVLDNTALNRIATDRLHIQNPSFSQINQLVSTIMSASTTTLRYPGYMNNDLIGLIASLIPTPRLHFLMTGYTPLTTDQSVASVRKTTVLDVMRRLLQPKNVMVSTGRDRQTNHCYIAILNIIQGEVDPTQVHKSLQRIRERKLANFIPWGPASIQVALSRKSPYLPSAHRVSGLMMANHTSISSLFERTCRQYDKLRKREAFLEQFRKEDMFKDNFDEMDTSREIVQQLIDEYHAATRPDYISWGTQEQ
UniProt P04080: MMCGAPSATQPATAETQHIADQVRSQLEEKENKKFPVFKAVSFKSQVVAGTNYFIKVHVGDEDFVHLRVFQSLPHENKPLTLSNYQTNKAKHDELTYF
UniProt Q9Y5I4: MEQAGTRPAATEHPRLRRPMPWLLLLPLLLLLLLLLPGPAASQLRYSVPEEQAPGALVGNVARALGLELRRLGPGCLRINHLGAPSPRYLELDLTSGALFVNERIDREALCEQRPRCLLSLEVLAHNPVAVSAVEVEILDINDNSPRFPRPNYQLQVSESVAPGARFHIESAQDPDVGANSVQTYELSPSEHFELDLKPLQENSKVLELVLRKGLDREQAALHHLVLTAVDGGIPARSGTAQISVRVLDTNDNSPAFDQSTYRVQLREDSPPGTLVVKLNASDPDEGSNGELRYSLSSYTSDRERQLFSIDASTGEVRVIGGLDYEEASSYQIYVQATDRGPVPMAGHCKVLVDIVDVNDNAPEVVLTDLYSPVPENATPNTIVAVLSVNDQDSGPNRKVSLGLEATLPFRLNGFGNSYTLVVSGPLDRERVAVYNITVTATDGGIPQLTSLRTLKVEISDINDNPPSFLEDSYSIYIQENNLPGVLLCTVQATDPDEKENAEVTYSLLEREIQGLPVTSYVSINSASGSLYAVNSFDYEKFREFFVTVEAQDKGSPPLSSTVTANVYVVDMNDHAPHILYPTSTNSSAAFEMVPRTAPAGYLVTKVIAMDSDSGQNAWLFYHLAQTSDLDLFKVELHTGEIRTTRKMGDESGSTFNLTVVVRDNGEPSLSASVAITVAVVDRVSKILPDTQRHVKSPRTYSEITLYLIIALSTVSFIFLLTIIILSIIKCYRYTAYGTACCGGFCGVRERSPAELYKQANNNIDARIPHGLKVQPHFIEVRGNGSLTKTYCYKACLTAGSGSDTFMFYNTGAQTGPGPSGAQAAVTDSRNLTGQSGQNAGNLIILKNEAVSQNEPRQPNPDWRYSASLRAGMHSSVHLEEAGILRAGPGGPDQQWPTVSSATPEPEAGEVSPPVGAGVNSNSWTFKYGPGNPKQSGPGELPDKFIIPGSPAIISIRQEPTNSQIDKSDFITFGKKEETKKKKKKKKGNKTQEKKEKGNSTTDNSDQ
UniProt P07741: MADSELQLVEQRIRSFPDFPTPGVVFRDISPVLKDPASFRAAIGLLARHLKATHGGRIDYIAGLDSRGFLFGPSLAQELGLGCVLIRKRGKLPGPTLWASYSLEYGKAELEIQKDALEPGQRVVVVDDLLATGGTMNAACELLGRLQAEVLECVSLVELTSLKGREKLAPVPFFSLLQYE
UniProt P26599: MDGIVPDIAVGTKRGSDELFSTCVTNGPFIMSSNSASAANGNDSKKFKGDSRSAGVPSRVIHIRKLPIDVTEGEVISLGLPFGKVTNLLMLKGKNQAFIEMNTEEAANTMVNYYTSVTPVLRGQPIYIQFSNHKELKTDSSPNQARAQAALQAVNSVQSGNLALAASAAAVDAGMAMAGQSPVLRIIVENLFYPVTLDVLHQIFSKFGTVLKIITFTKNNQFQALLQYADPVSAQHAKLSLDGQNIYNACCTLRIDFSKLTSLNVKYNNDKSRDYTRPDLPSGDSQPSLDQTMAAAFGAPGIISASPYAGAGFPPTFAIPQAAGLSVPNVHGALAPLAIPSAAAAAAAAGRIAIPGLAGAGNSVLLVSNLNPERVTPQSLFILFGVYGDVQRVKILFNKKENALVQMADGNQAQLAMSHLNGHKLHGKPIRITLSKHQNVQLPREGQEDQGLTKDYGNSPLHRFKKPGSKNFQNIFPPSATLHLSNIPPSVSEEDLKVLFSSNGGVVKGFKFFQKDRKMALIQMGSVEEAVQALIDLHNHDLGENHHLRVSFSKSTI
UniProt P25440, whole entry, looked up: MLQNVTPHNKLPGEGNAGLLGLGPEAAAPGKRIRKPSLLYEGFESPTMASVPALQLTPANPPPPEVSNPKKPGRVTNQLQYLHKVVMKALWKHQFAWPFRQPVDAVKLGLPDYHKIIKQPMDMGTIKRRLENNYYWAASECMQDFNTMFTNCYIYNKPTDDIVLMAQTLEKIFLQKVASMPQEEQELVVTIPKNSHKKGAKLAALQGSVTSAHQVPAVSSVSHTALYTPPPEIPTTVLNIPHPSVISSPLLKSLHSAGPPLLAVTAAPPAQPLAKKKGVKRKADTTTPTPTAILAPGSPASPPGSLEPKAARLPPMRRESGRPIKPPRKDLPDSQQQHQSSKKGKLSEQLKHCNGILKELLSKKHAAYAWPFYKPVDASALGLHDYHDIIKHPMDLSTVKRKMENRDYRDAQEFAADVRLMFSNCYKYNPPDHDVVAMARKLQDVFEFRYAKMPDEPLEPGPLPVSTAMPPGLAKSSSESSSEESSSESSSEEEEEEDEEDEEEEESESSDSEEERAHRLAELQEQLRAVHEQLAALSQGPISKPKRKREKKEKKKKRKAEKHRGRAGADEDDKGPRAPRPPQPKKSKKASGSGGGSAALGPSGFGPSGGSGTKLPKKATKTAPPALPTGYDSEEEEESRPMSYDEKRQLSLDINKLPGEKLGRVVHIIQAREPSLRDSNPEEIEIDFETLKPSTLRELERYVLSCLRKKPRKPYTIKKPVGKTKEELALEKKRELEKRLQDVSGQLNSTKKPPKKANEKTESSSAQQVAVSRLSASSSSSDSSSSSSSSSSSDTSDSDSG
UniProt Q7LG56, whole entry: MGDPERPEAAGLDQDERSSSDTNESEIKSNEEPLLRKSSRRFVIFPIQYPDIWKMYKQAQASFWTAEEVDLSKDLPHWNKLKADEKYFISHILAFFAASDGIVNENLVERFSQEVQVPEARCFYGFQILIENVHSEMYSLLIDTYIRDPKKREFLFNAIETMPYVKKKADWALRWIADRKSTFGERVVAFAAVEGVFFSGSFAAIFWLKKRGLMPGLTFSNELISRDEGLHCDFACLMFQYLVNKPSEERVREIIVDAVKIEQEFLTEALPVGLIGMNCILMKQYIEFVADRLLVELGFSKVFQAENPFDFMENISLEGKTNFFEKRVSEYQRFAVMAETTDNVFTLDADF
UniProt Q5JPE7: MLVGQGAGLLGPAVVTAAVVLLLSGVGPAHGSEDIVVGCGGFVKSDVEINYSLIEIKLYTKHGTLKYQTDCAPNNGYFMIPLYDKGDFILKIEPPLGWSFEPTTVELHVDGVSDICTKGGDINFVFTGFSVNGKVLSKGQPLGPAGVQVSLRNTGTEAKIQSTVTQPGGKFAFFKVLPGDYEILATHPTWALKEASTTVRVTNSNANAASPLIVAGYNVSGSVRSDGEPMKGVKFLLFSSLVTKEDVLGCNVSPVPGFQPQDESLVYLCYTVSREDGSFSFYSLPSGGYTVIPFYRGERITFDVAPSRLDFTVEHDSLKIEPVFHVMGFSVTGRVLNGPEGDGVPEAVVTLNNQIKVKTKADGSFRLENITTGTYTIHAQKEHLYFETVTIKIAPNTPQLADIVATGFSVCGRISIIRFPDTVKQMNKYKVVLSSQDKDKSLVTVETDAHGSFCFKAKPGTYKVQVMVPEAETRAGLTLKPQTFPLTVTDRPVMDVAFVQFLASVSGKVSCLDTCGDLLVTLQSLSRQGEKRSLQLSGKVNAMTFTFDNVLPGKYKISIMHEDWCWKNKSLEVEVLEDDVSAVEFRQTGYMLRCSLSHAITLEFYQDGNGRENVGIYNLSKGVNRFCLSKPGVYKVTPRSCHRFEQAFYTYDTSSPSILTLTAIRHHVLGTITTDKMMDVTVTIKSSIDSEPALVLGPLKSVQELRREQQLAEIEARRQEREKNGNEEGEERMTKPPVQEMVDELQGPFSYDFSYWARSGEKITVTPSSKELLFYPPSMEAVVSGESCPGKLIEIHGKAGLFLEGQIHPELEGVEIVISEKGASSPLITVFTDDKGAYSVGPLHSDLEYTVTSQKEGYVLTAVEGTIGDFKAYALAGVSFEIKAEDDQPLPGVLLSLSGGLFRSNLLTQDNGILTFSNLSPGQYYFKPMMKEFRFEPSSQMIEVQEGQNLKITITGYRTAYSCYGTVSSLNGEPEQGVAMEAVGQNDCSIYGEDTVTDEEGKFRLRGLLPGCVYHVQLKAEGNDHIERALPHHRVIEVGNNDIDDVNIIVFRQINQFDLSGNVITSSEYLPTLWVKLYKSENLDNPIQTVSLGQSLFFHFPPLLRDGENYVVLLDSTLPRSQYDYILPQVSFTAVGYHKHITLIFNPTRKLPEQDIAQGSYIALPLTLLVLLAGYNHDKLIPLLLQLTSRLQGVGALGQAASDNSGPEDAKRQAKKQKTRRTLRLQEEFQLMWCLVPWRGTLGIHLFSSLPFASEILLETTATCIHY
UniProt Q9HAU6: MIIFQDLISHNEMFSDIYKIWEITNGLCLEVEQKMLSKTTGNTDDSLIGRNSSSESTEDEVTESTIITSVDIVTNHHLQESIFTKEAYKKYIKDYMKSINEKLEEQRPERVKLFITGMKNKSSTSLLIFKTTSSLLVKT
UniProt P52294, whole entry: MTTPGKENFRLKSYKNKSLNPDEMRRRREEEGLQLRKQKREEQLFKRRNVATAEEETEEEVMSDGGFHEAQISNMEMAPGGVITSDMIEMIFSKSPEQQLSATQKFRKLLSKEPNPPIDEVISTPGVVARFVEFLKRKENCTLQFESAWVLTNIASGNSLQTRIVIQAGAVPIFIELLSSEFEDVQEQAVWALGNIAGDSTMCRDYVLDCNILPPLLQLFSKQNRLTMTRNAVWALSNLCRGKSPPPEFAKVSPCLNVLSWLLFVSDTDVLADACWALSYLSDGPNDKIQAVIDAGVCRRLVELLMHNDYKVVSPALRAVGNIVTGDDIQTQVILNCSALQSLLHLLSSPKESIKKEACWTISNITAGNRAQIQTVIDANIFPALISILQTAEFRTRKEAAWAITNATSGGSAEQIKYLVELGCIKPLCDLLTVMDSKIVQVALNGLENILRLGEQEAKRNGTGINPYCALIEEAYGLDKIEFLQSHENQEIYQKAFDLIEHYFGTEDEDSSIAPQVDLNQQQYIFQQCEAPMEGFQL

[1] = system: intact DAOY cells, treatment time: 90 min, 37 °C
[2] = system: DAOY cell lysate, treatment time: 20 min, 4 °C

Row | Target | melting temperature shift [1] | melting temperature shift [2]
1 | SP1 (UniProt P08047) | 1.12 °C | 
2 | UniProt Q6PKH6 | -0.613 °C | 
3 | UniProt P04035 |  | 2.15 °C
4 | GPN1 (UniProt Q9HCN4) | 3.61 °C | -3.66 °C
5 | AP1G1 (UniProt O43747) | 0.019 °C | -0.364 °C
6 | BANF1 (UniProt O75531) | 1.08 °C | 0.404 °C
7 | VAV2 (UniProt P52735) | 0.484 °C | 0.0206 °C
8 | CTSL (UniProt P07711) | -0.0645 °C | -0.603 °C
9 | RCCD1 (UniProt A6NED2) | -0.483 °C | 
10 | ZGPAT (UniProt Q8N5A5) | 1.2 °C | 1.33 °C
11 | IFNGR1 (UniProt P15260) | 0.565 °C | 
12 | NEU1 (UniProt Q99519) | -1.13 °C | 0.485 °C
13 | UniProt Q8TEV9 |  | 0.431 °C
14 | GALNT2 (UniProt Q10471) | -0.648 °C | 1.38 °C
15 | HNRNPDL (UniProt O14979) | 0.436 °C | 1.35 °C
16 | ZFPL1 (UniProt O95159) | -0.0752 °C | 
17 | DLGAP5 (UniProt Q15398) | 0.208 °C | -0.183 °C
18 | UniProt Q14568 | -0.4 °C | 
19 | UniProt Q8N442 |  | -0.108 °C
20 | GAN (UniProt Q9H2C0) |  | -0.441 °C
21 | LACTB (UniProt P83111) | -1.04 °C | 0.661 °C
22 | HSPB11 (UniProt Q9Y547) | 1.49 °C | -1.14 °C
23 | PRPF4 (UniProt O43172) | -0.554 °C | -0.0962 °C
24 | Q95604 (UniProt P10321) | 0.492 °C | 1.45 °C

Row | Target | melting temperature shift [1] | melting temperature shift [2]
25 | GGCX (UniProt P38435) | -0.637 °C | 0.339 °C
26 | UniProt Q5W0U4 | -0.72 °C | 
27 | VWA8 (UniProt A3KMH1) | 0.286 °C | -0.77 °C
28 | TM9SF4 (UniProt Q92544) | -0.191 °C | 0.884 °C
29 | FKBP15 (UniProt Q5T1M5) | 0.758 °C | -0.327 °C
30 | UniProt Q9UJA3 | -0.773 °C | 
31 | UniProt Q16594 | -1.13 °C | -0.921 °C
32 | VCL (UniProt P18206) | 0.118 °C | 
33 | PTRF (UniProt Q6NZI2) | 1.23 °C | 1.6 °C
34 | MLKL (UniProt Q8NB16) | -0.998 °C | -1.22 °C
35 | HTRA2 (UniProt O43464) | -0.674 °C | -0.836 °C
36 | UniProt Q9NQA3 | 0.634 °C | 
37 | UniProt Q969Q0 | -1.35 °C | 0.125 °C
38 | TERF2IP (UniProt Q9NYB0) | -0.599 °C | -0.304 °C
39 | UniProt Q5T7W0 | -0.733 °C | 
40 | MTIF3 (UniProt Q9H2K0) |  | 1.74 °C
41 | NAA30 (UniProt Q147X3) | -1.71 °C | 0.281 °C
42 | GPX1 (UniProt P07203) | -1.93 °C | 0.156 °C
43 | CHMP2A (UniProt O43633) | -1.34 °C | -1.31 °C
44 | SLU7 (UniProt O95391) |  | 1.54 °C
45 | UniProt Q8TDX5 |  | 0.311 °C
46 | UXS1 (UniProt Q8NBZ7) | -0.444 °C | -0.144 °C
47 | TRAPPC13 (UniProt A5PLN9) | 0.131 °C | 0.627 °C
48 | SDF2L1 (UniProt Q9HCN8) | -0.59 °C | 

Row | Target | melting temperature shift [1] | melting temperature shift [2]
49 | IGF2R (UniProt P11717) | 0.337 °C | 1.35 °C
50 | ADRM1 (UniProt Q16186) | -0.186 °C | -0.575 °C
51 | UniProt Q5XX13 | 7.23 °C | 
52 | MCAM (UniProt P43121) |  | 2.48 °C
53 | NT5DC1 (UniProt Q5TFE4) | -0.505 °C | -0.543 °C
54 | RNF5 (UniProt Q99942) | 0.398 °C | 1.41 °C
55 | CYB5R1 (UniProt Q9UHQ9) | -0.0734 °C | 0.0983 °C
56 | TUBG1 (UniProt P23258) | 0.406 °C | -0.0811 °C
57 | CSTB (UniProt P04080) | -0.213 °C | -2.26 °C
58 | UEVLD (UniProt Q8IX04) | -0.398 °C | -0.132 °C
59 | HECTD1 (UniProt Q9ULT8) | -0.147 °C | -0.446 °C
60 | UniProt Q13454 | -1.53 °C | 
61 | CBX1 (UniProt P83916) | 0.776 °C | -0.32 °C
62 | SETD3 (UniProt Q86TU7) | -0.217 °C | -0.0165 °C
63 | UniProt Q9Y5I4 | 0.78 °C | 
64 | ATP6V1G1 (UniProt O75348) |  | -0.461 °C
65 | UniProt Q96HH6 | -0.219 °C | 
66 | UniProt Q9Y2I8 |  | 0.241 °C
67 | UniProt Q8N9R8 |  | 0.347 °C
68 | CALCOCO2 (UniProt Q13137) | 0.796 °C | -0.603 °C
69 | APRT (UniProt P07741) | -0.965 °C | -1.36 °C
70 | TARS2 (UniProt Q9BW92) | -0.963 °C | -0.00918 °C
71 | PYROXD1 (UniProt Q8WU10) |  | -1.39 °C
72 | PDP1 (UniProt Q9P0J1) | -1.16 °C | 1.79 °C

Row | Target | melting temperature shift [1] | melting temperature shift [2]
73 | PTBP1 (UniProt P26599) | -0.656 °C | 0.947 °C
74 | CHD4 (UniProt Q14839) | -0.579 °C | 0.114 °C
75 | PSMA1 (UniProt P25786) | -0.75 °C | -0.0317 °C
76 | UniProt Q86VZ5 | -3.26 °C | 
77 | UniProt Q9H0H0 |  | -1.08 °C
78 | PAK1IP1 (UniProt Q9NWT1) | 0.465 °C | -0.397 °C
79 | UniProt Q7Z7L1 | -2.02 °C | -1.78 °C
80 | CYLD (UniProt Q9NQC7) |  | -0.594 °C
81 | UniProt P52738 | 1.18 °C | 
82 | UniProt P49753 | 1.07 °C | 
83 | MINK1 (UniProt Q8N4C8) |  | -1.09 °C
84 | BRD2 (UniProt P25440) | -1.18 °C | 1.25 °C
85 | MVP (UniProt Q14764) | 0.218 °C | -0.147 °C
86 | RRM2B (UniProt Q7LG56) | -0.467 °C | 0.82 °C
87 | WDR3 (UniProt Q9UNX4) |  | 0.28 °C
88 | MRS2 (UniProt Q9HD23) | -2.17 °C | 1.2 °C
89 | MTMR14 (UniProt Q8NCE2) |  | -0.455 °C
90 | VPS25 (UniProt Q9BRG1) | -0.47 °C | -0.714 °C
91 | UniProt P55290 | 2.26 °C | 1.49 °C
92 | UniProt Q8WTS1 |  | 0.782 °C
93 | UniProt Q96LI5 |  | -2.02 °C
94 | NOMO2 (UniProt Q5JPE7) | -0.189 °C | 
95 | ITFG2 (UniProt Q969R8) | 1.97 °C | -0.348 °C
96 | UniProt P49795 |  | -1.12 °C

As entered above.
melting temperature shift [2] with PSMA1 (UniProt P25786) is entered as -0.0317 °C
melting temperature shift [1] with NOMO2 (UniProt Q5JPE7) is entered as -0.189 °C
melting temperature shift [2] with WDR3 (UniProt Q9UNX4) is entered as 0.28 °C
melting temperature shift [2] with VPS25 (UniProt Q9BRG1) is entered as -0.714 °C

(further entries)

Row | Target | melting temperature shift [1] | melting temperature shift [2]
97 | GPS1 (UniProt Q13098) | 0.0406 °C | -0.848 °C
98 | UniProt P02751 | -0.169 °C | 1.45 °C
99 | UniProt Q96DE5 |  | -0.502 °C
100 | UniProt P42356 | 1.2 °C | -1.66 °C
101 | MINA (UniProt Q8IUF8) | -0.383 °C | 0.906 °C
102 | PNP (UniProt P00491) | -1.55 °C | 
103 | RHOC (UniProt P08134) | -0.75 °C | -0.837 °C
104 | UniProt Q9UPT6 | -0.142 °C | 
105 | JMY (UniProt Q8N9B5) |  | -2.03 °C
106 | UniProt Q96JD6 | 0.316 °C | 
107 | STRN4 (UniProt Q9NRL3) | 0.189 °C | -1.07 °C
108 | UniProt Q9HAU6 | 0.674 °C | 
109 | ECHS1 (UniProt P30084) | -0.713 °C | 0.189 °C
110 | NEK6 (UniProt Q9HC98) |  | -2.56 °C
111 | CAV1 (UniProt Q03135) |  | 0.0974 °C
112 | PMVK (UniProt Q15126) | -0.792 °C | -1.73 °C
113 | PPHLN1 (UniProt Q8NEY8) |  | 1.24 °C
114 | KPNA1 (UniProt P52294) | -0.341 °C | 0.407 °C
115 | VAC14 (UniProt Q08AM6) | -0.12 °C | -0.102 °C
116 | MDH2 (UniProt P40926) | -0.126 °C | 0.7 °C
117 | NAT6 (UniProt Q93015) | 4.87 °C | 
118 | SLC25A20 (UniProt O43772) | -2.31 °C | 2.57 °C
119 | RPN2 (UniProt P04844) | -0.472 °C | 1.42 °C
120 | RPS3A (UniProt P61247) | -0.957 °C | 0.157 °C

Source: the supplement of paper PMC10060354, “Discovery of a small molecule ligand of FRS2 that inhibits invasion and tumor growth” (Cellular Oncology, 2022)
